# Experimental data as given in PubChem BioAssay AID504834 (National Center for Advancing Translational Sciences (NCATS), 2011).
# Screen size: about 320,000 compounds; about 22,000 (6.9%) were called active. This list was built around the results that the source calls inconclusive (neither active nor inactive); the mix of calls is not that of the screen. The call rests on the fitted dose curve; in most records, active means well fitted inhibition curve with a large enough effect; inconclusive means small, poorly fitted or top-dose-only effect, or another doubt; inactive means no such curve, though single readings can be large or run the other way. Where the call is inconclusive, the potency comes from a doubtful curve fit.
# Test: Primary qHTS for delayed death inhibitors of the malarial parasite plastid, 96 hour incubation
# Settings: P. falciparum luciferase reporter growth; series mostly up to 28.7 µM; activity change, negative = inhibition: at the top concentration
# How it was run: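 Erythrocytes infected with luciferase-expressing P. falciparum were dispensed at 2% hematocrit and 0.05% parasitemia (final), then incubated with compounds 96 hours at 37 C in 5% CO2. Luminescence after detection reagent addition reported growth.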
# On the % scale 0 is the no-effect control and ±100 the full control effect; potency means the concentration at half of the fitted maximal effect.
SMILES,Potency,"activity change, negative = inhibition"
Cc1ccc(C(=O)Nc2nnc(CC(=O)N/N=C/c3ccncc3)s2)cc1,"inconclusive: 11.7 µM [inhibitor, single point]",–
Cc1nnc(N2C(=O)c3cccc4c([N+](=O)[O-])ccc(c34)C2=O)s1,–,inactive: -32.3%
CCC(C)(C)NC(=O)C(c1ccc(F)cc1)N(Cc1ccccc1)C(=O)c1cnccn1 (stereo unspecified),–,inactive: 0%
COc1ccccc1N1C(N)=NC(N)=NC12CCCCC2,active: 13.1 µM,–
O=C1/C(=C/c2cccnc2)SC(=S)N1CC1CCCO1 (stereo unspecified),–,inactive: -21.8%
O=C(Cc1nc2ccccc2[nH]1)c1ccc([N+](=O)[O-])cc1,active: 2.94 µM,–
COc1cc(C(=O)Nn2c(CC(C)C)nc3ccccc3c2=O)cc(OC)c1OC,"inconclusive: 0.0029 µM [inhibitor, full curve, poor fit]",–
CN(C)c1nc(Nc2ccccc2)nc(Oc2ccc(=O)[nH]n2)n1,–,inactive: 0%
O=C(Nc1c(Cl)cccc1Cl)C1CCC1,active: 10.4 µM,–
CCc1nn(CC(=O)Nc2ccc(Br)c(C)c2)c(=N)s1,–,inactive: 54.3% [at 5.75 µM]
c1ccc2c3c([nH]c2c1)C1(CCNCC1)NCC3,"inconclusive: 13.1 µM [inhibitor, single point]",–
CCN(Cc1ccccc1)C(=O)CN1C(=O)COc2ccc(S(=O)(=O)NC3CCCC3)cc21,–,inactive: -4.73%
O=c1cc(C(F)(F)F)[nH]c2c(OC(F)(F)F)cccc12,"inconclusive: 14.7 µM [inhibitor, single point]",–
COc1ccc(-c2nnc(Nc3ccc(S(=O)(=O)Nc4nccs4)cc3)c3ccccc23)cc1,–,inactive: -10.2%
CCCCc1nnc(NC(=O)C2CCN(c3ncnc4sc(C)c(C)c34)CC2)s1,"inconclusive: 18.5 µM [inhibitor, single point]",–
COC(=O)c1ccccc1S(=O)(=O)N1CCC(C(=O)N(C)CCOc2ccccc2)CC1,"inconclusive: 11.7 µM [inhibitor, single point]",–
Cc1oc(=O)oc1CN1CCN(c2cc3c(cc2F)c(=O)c(C(=O)O)c2n3C(C)S2)CC1 (stereo unspecified),active: 1.69 µM,–
COc1ccccc1-c1nc2n(n1)C(c1ccccc1Cl)C(C(N)=O)=C(C)N2 (stereo unspecified),"inconclusive: 9.28 µM [inhibitor, partial curve]",–
O=C(Nc1ccccc1)NC1(C(=O)NCCCN2CCOCC2)CCCCC1,–,inactive: 122%
COC(=O)c1ccc2c(=O)n(Cc3ccc4c(c3)OCO4)c(=S)[nH]c2c1,"inconclusive: 4.15 µM [inhibitor, single point]",–
Cc1cc(C)c2sc(N(CCCN(C)C)C(=O)c3ccc(S(=O)(=O)N4CCc5ccccc5C4)cc3)nc2c1,"inconclusive: 16.5 µM [inhibitor, single point]",–

# Copied from the list:
# Potency, c1ccc2c3c([nH]c2c1)C1(CCNCC1)NCC3 is entered as inconclusive: 13.1 µM [inhibitor, single point]
# Potency, Cc1ccc(C(=O)Nc2nnc(CC(=O)N/N=C/c3ccncc3)s2)cc1 is entered as inconclusive: 11.7 µM [inhibitor, single point]
